In patent US10822535B2, “Modified acid compositions as alternatives to conventional acids in the oil and gas industry” (Fluid Energy Group Ltd., priority 2017, dated 2020):
Where a name gives a salt, the structure may show the parent alone.

Tests used:
[1] = Corrosion testing of acid compositions on steel coupons; conditions: 1018 steel, 110° C., 6 hours, corrosion package none
[2] = Wormholing testing (matrix acidizing experiments)
[3] = optimal condition, Buijse and Glasbergen fit, Example 1 at 90% conc.

Compound: Cl [15% HCl, hydrochloric acid]
- Corrosion Mils/yr [1]: 45436.180 Mils/yr
- Corrosion lb/ft2 [1]: 1.273 lb/ft2
- Corrosion mm/year [1]: 1154.079 mm/year
- Loss wt. [1]: 25.722 g
- wormhole pattern at low injection rate ([2]; 0.8 ml/min (0.5 cm/min)): large-diameter wormhole
- Pore Volume to Breakthrough ([2]; core IC1, acid injection rate 8 ml/min, interstitial velocity 4.53 cm/min): 0.60
- Pore Volume to Breakthrough ([2]; core IC2, acid injection rate 10 ml/min, interstitial velocity 6.39 cm/min): 0.52
- Pore Volume to Breakthrough ([2]; core IC3, acid injection rate 7 ml/min, interstitial velocity 4.97 cm/min): 0.60
- Pore Volume to Breakthrough ([2]; core IC5, acid injection rate 5 ml/min, interstitial velocity 3.47 cm/min): 0.51
- Pore Volume to Breakthrough ([2]; core IC6, acid injection rate 3 ml/min, interstitial velocity 2.10 cm/min): 0.47
- Pore Volume to Breakthrough ([2]; core IC16, acid injection rate 2 ml/min, interstitial velocity 1.56 cm/min): 0.64
- Pore Volume to Breakthrough ([2]; core IC18, acid injection rate 0.8 ml/min, interstitial velocity 0.62 cm/min): 2.93
- PVbt-optimal [2, 3]: 0.46
- Vi-opt [2, 3]: 1.97
